Results are given in words; binding and its absence hold for the method and conditions named. Binding seen in cells or lysates may run through a third protein. Some binding calls cover weakened binding; strength is not graded here.
Columns and labels:
HA-tagged SPOP (WT) = HA-tagged SPOP (WT) (UniProt O43791); experiment: co-IP; 293T cells transfected 24 h with SPOP WT and FLAG-c-Myc or ΔSBC1/ΔSBC2; Bortezomib (250 nM) for 6 h; total cell lysates; IP with anti-FLAG or anti-SPOP antibodies
[1] = biological target: speckle-type POZ (SPOP) (human (endogenous in 143B)) (UniProt O43791); experiment: co-IP; 143B cells with or without CircECE1 knockdown; which protein was precipitated is not told

Sequences of proteins named here, by UniProt entry; tags and fusion partners are left off. A change or cut given only in a name is not applied to a line headed by its entry.
UniProt O43791: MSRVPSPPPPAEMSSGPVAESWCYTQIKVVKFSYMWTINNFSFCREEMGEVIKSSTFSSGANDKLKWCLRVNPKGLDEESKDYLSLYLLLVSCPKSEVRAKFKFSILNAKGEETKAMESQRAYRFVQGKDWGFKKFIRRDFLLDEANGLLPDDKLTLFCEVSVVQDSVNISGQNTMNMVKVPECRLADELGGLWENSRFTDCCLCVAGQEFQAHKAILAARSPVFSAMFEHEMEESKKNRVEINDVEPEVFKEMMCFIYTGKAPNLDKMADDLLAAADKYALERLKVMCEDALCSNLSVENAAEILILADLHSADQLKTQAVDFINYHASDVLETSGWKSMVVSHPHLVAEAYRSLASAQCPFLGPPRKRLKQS
UniProt P01106: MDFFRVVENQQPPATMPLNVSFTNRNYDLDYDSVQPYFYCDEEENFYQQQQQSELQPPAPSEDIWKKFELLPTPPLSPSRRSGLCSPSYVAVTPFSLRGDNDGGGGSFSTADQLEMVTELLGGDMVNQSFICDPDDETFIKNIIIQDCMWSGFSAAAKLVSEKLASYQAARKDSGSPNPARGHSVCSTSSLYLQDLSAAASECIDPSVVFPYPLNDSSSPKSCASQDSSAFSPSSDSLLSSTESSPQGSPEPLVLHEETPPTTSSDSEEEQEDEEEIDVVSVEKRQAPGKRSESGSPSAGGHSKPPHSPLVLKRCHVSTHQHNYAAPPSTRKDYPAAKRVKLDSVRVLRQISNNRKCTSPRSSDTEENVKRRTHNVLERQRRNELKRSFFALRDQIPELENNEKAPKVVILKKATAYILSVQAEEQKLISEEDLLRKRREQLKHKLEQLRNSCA

Substance | binding (HA-tagged SPOP (WT)) | binding [1]
FLAG-c-Myc (WT) (from UniProt P01106-2 1-454) | binds | –
c-Myc (from UniProt P01106 1-454) | – | binds

From article PMC7586679
